Data from patent EP1101499A2, “Diagnostic agents for pancreatic exocrine function” (Tokyo Gas Company Limited, priority 1999, dated 2001).
Where “and” joins values, the source holds several entries; their conditions need not be identical. Identical values can stand only once. Counter-ions that a name gives are not always drawn. Part of at least one peptide drawing is inferred or uncertain, most often the ends. Residues, ends and D or L forms follow the SMILES beside them. *: point of attachment. Bz = O=C(c1ccccc1)*

Test system: pancreatic exocrine function
Assay: 13C-breath test after oral administration to chronic pancreatitis (oleic acid model) and control/normal rats
Type: in vivo, rat
Details: for Δ^13C value at 20 minutes after the administration: group value n=3, 100 mg/kg orally
Protocol: […] The rat of 9 weeks old was fixed without anesthesia in a rat holder for a microwave irradiation apparatus. The breath was collected at a rate of about 100 to 300 ml/min using a stroke pump (Variable Stroke Pump VS-500, Shibata Kagaku Kogyo) and introduced directly to a flow cell of a ^13CO2 analyzer EX-130S (Nihon Bunko). A Perma Pure drier (MD-050-12P, Perma Pure INC.) was set between the rat holder and stroke pump to remove out water vapor in the breath. CO2 concentration was stabilized, the rat was once removed out of the rat holder and Bz-DL-Phe-(^13C-Leu).Na dissolved in distilled water was administered into the stomach using an oral sonde.
Output data from the ^13CO2 analyzer were AD converted and put into a personal computer (Apple Power Macintosh 8500). Using a data processing soft ware Lab VIEW (National Instruments), 10 data points at every 100 msec were integrated and averaged in an interval of 5 seconds and converted to ^13C atom %, Δ^13C (‰), and CO2 concentration (%). In this manner, the ^13C breath test was continuously carried out. […] CO2 concentration in the collected breath was held at 3 ± 0.5%.
Δ^13C (%o) was calculated from the ^13C concentration in the exhaled CO2 at each time point (^13C tmin) and the ^13C concentration in standard CO2 (^13C std) according to the following equation: Δ^13 (C (‰) - [()^13 (C tmin -)^13 (C 0min)/)^13 C std] x 1000 [formula]

| SMILES | Δ^13C value at 20 minutes after the administration (chronic pancreatitis rats) [%o] | Δ^13C (%o) at 20 min (individual chronic pancreatitis rats #1-#3, HCl salt 100 mg/kg orally) | Δ^13C (%o) at 20 min (individual normal rats #1-#3, HCl salt 100 mg/kg orally) | Δ^13C value at 20 minutes after the administration (normal rats) [%o] | sensitivity (50 mg/kg orally, Δ^13C at 10 minutes as check value, specificity 100%, chronic pancreatitis n=8, normal n=7) [%] |
| --- | --- | --- | --- | --- | --- |
| CC(C)C[C@H](NC(=O)[C@H](CCCNC(=N)N)NC(=O)c1ccccc1)C(=O)O [Bz-Arg-(^13C-Leu) HCl, Bz-Arg-(^13C-Leu).HCI] (Bz-Arg-Leu-OH) | 3.05 ± 6.97 | 3.69 %o and 11.25 %o and -5.79 %o | 51.94 %o and 74.46 %o and 79.91 %o | 68.77 ± 12.01 |  |
| C[C@H](NC(=O)[C@H](C)NC(=O)c1ccccc1)C(=O)O [Bz-Ala-(^13C-Ala)-Na] (Bz-Ala-Ala-OH) |  |  |  |  | 88 |
